The text below walks through data of PMC11442470.

Amino acid sequences for entries named in this document (tags omitted). Residues count along the entry.
UniProt O94925, residues 55-669: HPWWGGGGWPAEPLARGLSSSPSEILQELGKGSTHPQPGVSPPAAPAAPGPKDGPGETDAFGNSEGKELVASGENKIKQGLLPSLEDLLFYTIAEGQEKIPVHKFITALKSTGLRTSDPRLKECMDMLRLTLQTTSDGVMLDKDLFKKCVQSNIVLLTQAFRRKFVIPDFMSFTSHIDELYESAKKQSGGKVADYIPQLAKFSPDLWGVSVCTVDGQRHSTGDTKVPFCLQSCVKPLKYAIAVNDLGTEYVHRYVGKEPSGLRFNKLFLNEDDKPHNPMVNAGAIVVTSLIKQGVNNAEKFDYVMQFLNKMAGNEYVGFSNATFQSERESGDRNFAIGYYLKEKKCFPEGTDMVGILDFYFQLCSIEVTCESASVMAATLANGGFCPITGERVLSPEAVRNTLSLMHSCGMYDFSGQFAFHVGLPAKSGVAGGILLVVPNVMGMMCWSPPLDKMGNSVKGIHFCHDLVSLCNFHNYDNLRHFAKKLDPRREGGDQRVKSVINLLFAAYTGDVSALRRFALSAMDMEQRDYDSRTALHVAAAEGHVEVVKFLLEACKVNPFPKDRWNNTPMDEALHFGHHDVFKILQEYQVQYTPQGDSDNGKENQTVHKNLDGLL
UniProt D3Z7P3, residues 55-674: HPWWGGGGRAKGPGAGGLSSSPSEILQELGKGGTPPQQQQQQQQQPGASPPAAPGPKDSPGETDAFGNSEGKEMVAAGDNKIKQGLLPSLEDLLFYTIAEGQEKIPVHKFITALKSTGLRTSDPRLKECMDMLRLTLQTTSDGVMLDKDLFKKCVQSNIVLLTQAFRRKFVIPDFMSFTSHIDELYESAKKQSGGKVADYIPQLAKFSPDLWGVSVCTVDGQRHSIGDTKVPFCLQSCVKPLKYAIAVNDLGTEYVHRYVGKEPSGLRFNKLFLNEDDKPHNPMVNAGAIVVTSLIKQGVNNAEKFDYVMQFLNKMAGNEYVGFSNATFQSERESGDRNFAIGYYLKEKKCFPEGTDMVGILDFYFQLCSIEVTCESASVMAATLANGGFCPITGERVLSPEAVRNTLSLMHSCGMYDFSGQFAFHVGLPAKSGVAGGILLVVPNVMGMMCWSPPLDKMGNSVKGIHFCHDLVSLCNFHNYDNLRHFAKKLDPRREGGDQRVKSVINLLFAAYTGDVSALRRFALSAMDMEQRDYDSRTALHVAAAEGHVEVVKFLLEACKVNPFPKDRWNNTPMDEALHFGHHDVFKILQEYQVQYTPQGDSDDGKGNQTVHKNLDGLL

In assay [1] the target is T1, FLAG-tagged full-length PDZD8, stably expressed in MEFs (human) (UniProt Q8NEN9).
T1 sequence: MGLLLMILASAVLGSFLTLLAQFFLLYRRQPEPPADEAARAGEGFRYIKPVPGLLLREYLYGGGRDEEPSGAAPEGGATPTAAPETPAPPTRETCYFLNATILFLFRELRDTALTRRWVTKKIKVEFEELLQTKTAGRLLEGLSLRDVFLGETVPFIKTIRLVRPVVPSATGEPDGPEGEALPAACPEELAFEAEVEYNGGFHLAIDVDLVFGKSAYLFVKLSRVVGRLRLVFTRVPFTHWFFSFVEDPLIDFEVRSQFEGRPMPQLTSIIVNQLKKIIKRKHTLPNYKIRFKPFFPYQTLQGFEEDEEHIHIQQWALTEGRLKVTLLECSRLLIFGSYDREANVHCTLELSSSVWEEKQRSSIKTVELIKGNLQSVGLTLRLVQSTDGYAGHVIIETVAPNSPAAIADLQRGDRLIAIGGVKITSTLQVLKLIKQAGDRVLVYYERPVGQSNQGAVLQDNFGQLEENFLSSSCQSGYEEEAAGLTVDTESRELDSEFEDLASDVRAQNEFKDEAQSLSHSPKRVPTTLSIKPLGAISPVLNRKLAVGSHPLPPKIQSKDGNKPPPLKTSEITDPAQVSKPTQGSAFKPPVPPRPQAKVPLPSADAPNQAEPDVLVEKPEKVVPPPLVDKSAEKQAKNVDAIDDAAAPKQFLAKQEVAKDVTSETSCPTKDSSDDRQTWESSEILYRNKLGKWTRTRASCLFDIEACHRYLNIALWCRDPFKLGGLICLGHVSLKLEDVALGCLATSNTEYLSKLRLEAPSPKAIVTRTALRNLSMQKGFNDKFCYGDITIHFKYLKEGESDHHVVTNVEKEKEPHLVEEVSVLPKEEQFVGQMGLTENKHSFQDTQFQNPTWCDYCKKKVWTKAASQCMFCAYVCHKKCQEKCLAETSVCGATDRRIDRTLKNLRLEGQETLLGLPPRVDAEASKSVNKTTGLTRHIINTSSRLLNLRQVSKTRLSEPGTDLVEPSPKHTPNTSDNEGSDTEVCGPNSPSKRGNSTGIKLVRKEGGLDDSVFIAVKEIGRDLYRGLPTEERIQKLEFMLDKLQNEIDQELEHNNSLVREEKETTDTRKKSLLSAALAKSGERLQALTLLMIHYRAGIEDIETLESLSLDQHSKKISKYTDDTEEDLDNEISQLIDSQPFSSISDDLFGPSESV
Briefly: co-IP; MEFs stably expressing FLAG-tagged PDZD8-FL or PDZD8-CT, glucose-starved for 2 h or not, immunoprecipitation with anti-FLAG, blot for co-precipitated endogenous GLS1.

In assay [2] the target is GLS1, ectopically expressed in HEK293T cells (UniProt O94925). Kind of assay: co-IP; HEK293T cells transfected with expression plasmids for GLS1 and PDZD8, DDM/CHS lysis buffer, anti-HA, anti-Myc or anti-FLAG precipitation, 4 h at 4 °C.
In assay [3] the target is GLS1 (KGA)-mCherry, stably expressed in MEFs (UniProt O94925). Kind of assay: FRET or BRET; FRET-FLIM in living MEFs stably expressing GFP-PDZD8 (donor) and GLS1 (KGA)-mCherry; fluorescence lifetime of GFP, 37 °C; cells unstarved or glucose-starved for 2 h. (In general: In BRET a luciferase serves as donor, and the signal depends on an acceptor being close.)

Changes are numbered by the printed parent chain. Names may count otherwise. Results are given in words; binding and its absence hold for the method and conditions named. Binding seen in cells or lysates may run through a third protein. Some entries that bind do so weakly or less than the wild type. For part of these data: Tags and fused reporters may be left off the sequences shown.

Regarding “glutaminase 1 (GLS1; both KGA and GAC), endogenous in MEFs (from UniProt D3Z7P3 55-674) (enzyme)”, the binding result in assay [1] is reported as “binds”.

B1: PDZD8, ectopically expressed in HEK293T cells (protein, UniProt Q8NEN9 1-1154)
chain: T1 sequence
Regarding B1, the binding entry in assay [2] was “binds”.

B2: GFP-PDZD8-T527A, stably expressed in MEFs (protein, UniProt Q8NEN9 1-1154)
chain: T1 sequence with T527A
B2: the binding result in assay [3] is on record as “binds”.
